Experimental data as given in PubChem BioAssay AID330 (DTP/NCI, 2004).
The list is a part of this screen's results and no random one: it gathers tests that were run many times, whatever their T/C, doses with no T/C, and many T/C values between a quarter and a half above the control. Further doses and runs are listed elsewhere. T/C gives the treated animals as a percentage of the vehicle group. Some doses have a count of surviving animals in place of a T/C: the source holds a T/C of zero for them, seemingly a mark for toxic or unscored doses. Some survivor counts are full or nearly so, which does not show that the dose was tolerated: the source hardly ever lists a survival T/C far under the control, and the zero likely stands for such cases as well. Survivors were counted at the toxicity check, usually on the fifth day, unless a day is given; later deaths do not show. Schedule codes are those of the source, read here as Q, the interval in days (D) or hours (H), X, the number of doses. Some entries were tested several times; the values are given in rising order. For survival time, the PubChem record calls one and a half times the control and up active, and a quarter to a half above the control has no call in these data; cut-offs in other NCI protocols can differ. Signs of the kind (2×) stand for listed records that agree. Some T/C values carry the count of animals alive at the toxicity check (mostly the fifth day); without a count, all were alive then.

Test system: P388 leukemia ip, CD2F1 mice, survival T/C
Experiment: NCI In Vivo Anticancer Drug Screen. Data for tumor model P388 Leukemia (intraperitoneal) in CD2F1 (CDF1) mice
Settings: T/C endpoint: median survival time, higher T/C = longer survival
[1] = dose: 200.0 mg/kg/injection, schedule: Q01DX005 (ip), vehicle: Klucel (hydroxypropylcellulose) (HPC)
[2] = dose: 1.5 mg/kg/injection, schedule: Q01DX009 (ip), vehicle: saline with Tween-80
[3] = dose: 3.0 mg/kg/injection, schedule: Q01DX009 (ip), vehicle: saline with Tween-80
[4] = dose: 100.0 mg/kg/injection, schedule: Q04DX002 (ip), vehicle: saline with Tween-80
[5] = dose: 6.25 mg/kg/injection, schedule: Q01DX009 (ip), vehicle: water
[6] = dose: 200.0 mg/kg/injection, schedule: Q01DX009 (ip), vehicle: Klucel (hydroxypropylcellulose) (HPC)
[7] = dose: 120.0 mg/kg/injection, schedule: Q01DX005 (ip), vehicle: saline
[8] = dose: 240.0 mg/kg/injection, schedule: Q01DX005 (ip), vehicle: saline

NCC(CC(=O)O)c1ccc(Cl)cc1 (stereo not drawn)
survivor count [1]: 0 of 6

CCNC(=NC)c1ccc(NC(=O)c2ccc(C(=O)Nc3ccc(C(=NC)NCC)cc3)cc2)cc1
T/C [2]: 127 % of control (2×)
survivor count [2]: 6 of 6
T/C [3]: 136 % of control
survivor count [3]: 6 of 6
survivor count (dose: 6.0 mg/kg/injection, schedule: Q01DX009 (ip), vehicle: saline with Tween-80): 6 of 6
survivor count (dose: 25.0 mg/kg/injection, schedule: Q04DX003 (ip), vehicle: saline with Tween-80): 1 of 6
survivor count (dose: 50.0 mg/kg/injection, schedule: Q04DX003 (ip), vehicle: saline with Tween-80): 0 of 6
survivor count (dose: 100.0 mg/kg/injection, schedule: Q04DX003 (ip), vehicle: saline with Tween-80): 0 of 6

N#Cc1cc(Br)ccc1[N+](=O)[O-]
survivor count (dose: 25.0 mg/kg/injection, schedule: Q01DX009 (ip), vehicle: saline): 6 of 6

CC(=O)OCN(C)C=O
survivor count (dose: 1000.0 mg/kg/injection, schedule: Q01DX005 (ip), vehicle: water): 1 of 5

CCOC(=O)C(C(=O)OCC)=C(C)C
T/C (dose: 266.0 mg/kg/injection, schedule: Q01DX009 (ip), vehicle: saline with Tween-80): 125 % of control
T/C (dose: 600.0 mg/kg/injection, schedule: Q01DX009 (ip), vehicle: saline with Tween-80): 125 % of control

O=C1c2cc([N+](=O)[O-])cc3cc([N+](=O)[O-])cc(c23)C(=O)N1CCNCCNCCNCCN1C(=O)c2cc([N+](=O)[O-])cc3cc([N+](=O)[O-])cc(c23)C1=O
T/C (dose: 25.0 mg/kg/injection, schedule: Q04DX002 (ip), vehicle: saline with Tween-80): 128 % of control
T/C (dose: 50.0 mg/kg/injection, schedule: Q04DX002 (ip), vehicle: saline with Tween-80): 137 % of control
T/C [4]: 125 % of control
survivor count [4]: 4 of 6 and 6 of 6
survivor count (dose: 200.0 mg/kg/injection, schedule: Q04DX002 (ip), vehicle: saline with Tween-80): 1 of 6
survivor count (dose: 400.0 mg/kg/injection, schedule: Q04DX002 (ip), vehicle: saline with Tween-80): 0 of 6

C1C[S][Hg][S]CCO1
survivor count (dose: 25.0 mg/kg/injection, schedule: Q01DX009 (ip), vehicle: suspension in saline): 0 of 6
survivor count (dose: 50.0 mg/kg/injection, schedule: Q01DX009 (ip), vehicle: saline): 1 of 6
survivor count (dose: 100.0 mg/kg/injection, schedule: Q01DX009 (ip), vehicle: saline): 2 of 6
survivor count (dose: 200.0 mg/kg/injection, schedule: Q01DX009 (ip), vehicle: saline): 4 of 6

COc1ccc(CSC(=S)Nc2ccc(F)c(C)c2)cc1
survivor count (dose: 200.0 mg/kg/injection, schedule: Q01DX009 (ip), vehicle: suspension in saline): 3 of 6

CSc1nccc(=O)n1-c1ccccc1
survivor count (dose: 400.0 mg/kg/injection, schedule: Q04DX003 (ip), vehicle: Klucel (hydroxypropylcellulose) (HPC)): 2 of 6

CCOc1c(N=Nc2cccc(Cl)c2)c(-c2ccccc2)nn1C(=S)S
survivor count (dose: 12.5 mg/kg/injection, schedule: Q01DX005 (ip), vehicle: saline with Tween-80): 1 of 6
survivor count (dose: 25.0 mg/kg/injection, schedule: Q01DX005 (ip), vehicle: saline with Tween-80): 0 of 6
survivor count (dose: 50.0 mg/kg/injection, schedule: Q01DX005 (ip), vehicle: saline with Tween-80): 0 of 6
survivor count (dose: 100.0 mg/kg/injection, schedule: Q01DX005 (ip), vehicle: saline with Tween-80): 0 of 6
survivor count (dose: 200.0 mg/kg/injection, schedule: Q01DX005 (ip), vehicle: saline with Tween-80): 0 of 6

CCOC(=O)C(C)(C)CN(CCCN(C)C)CC(C)(C)C(=O)OCC
survivor count (dose: 200.0 mg/kg/injection, schedule: Q01DX009 (ip), vehicle: saline with Tween-80): 0 of 6

[N-]=[N+]=CC(=O)CCC(=O)C=[N+]=[N-]
T/C (dose: 1.5 mg/kg/injection, schedule: Q01DX009 (ip), vehicle: other): 143 % of control
T/C (dose: 3.12 mg/kg/injection, schedule: Q01DX007 (ip), vehicle: DMSO): 140 % of control
survivor count (dose: 6.25 mg/kg/injection, schedule: Q01DX009 (ip), vehicle: other): 6 of 6
survivor count (dose: 12.5 mg/kg/injection, schedule: Q01DX009 (ip), vehicle: other): 6 of 6
survivor count (dose: 25.0 mg/kg/injection, schedule: Q01DX009 (ip), vehicle: other): 6 of 6
survivor count (dose: 50.0 mg/kg/injection, schedule: Q01DX009 (ip), vehicle: other): 6 of 6
survivor count (dose: 100.0 mg/kg/injection, schedule: Q01DX009 (ip), vehicle: other): 3 of 6
survivor count (dose: 200.0 mg/kg/injection, schedule: Q01DX009 (ip), vehicle: other): 2 of 6
survivor count (dose: 400.0 mg/kg/injection, schedule: Q01DX009 (ip), vehicle: other): 1 of 6

COc1cccc2c1C(=O)c1c(O)c3c(c(O)c1C2=O)CC(O)(C(O)CO)CC3OC1CC(N2CCCCC2)C(O)C(C)O1 (stereo not drawn)
T/C (dose: 0.78 mg/kg/injection, schedule: Q01DX009 (ip), vehicle: water): 134 % of control
T/C (dose: 3.13 mg/kg/injection, schedule: Q01DX009 (ip), vehicle: water): 139 and 146 % of control
T/C [5]: 144 % of control
survivor count [5]: 6 of 6
survivor count (dose: 12.5 mg/kg/injection, schedule: Q01DX009 (ip), vehicle: water): 5 of 6 and 6 of 6
T/C (dose: 18.0 mg/kg/injection, schedule: Q04DX003 (ip), vehicle: water): 134 % of control
survivor count (dose: 25.0 mg/kg/injection, schedule: Q01DX009 (ip), vehicle: water): 1 of 6 and 2 of 6
T/C (dose: 37.5 mg/kg/injection, schedule: Q04DX003 (ip), vehicle: water, evaluated on day 30): 131 % of control
T/C (dose: 37.5 mg/kg/injection, schedule: Q04DX003 (ip), vehicle: water, evaluated on day 45): 135 % of control [5 of 6 alive]
survivor count (dose: 75.0 mg/kg/injection, schedule: Q04DX003 (ip), vehicle: water): 1 of 6
survivor count (dose: 150.0 mg/kg/injection, schedule: Q04DX003 (ip), vehicle: water): 0 of 6

Nc1c(I)cc(I)cc1C(=O)O
T/C [6]: 126 % of control
survivor count [6]: 6 of 6

COc1cc2c(cc1OC)C13CCN4C=C5CCOC6CC(=O)N2C1C6C5CC43 (stereo not drawn)
survivor count [7]: 0 of 6
survivor count [8]: 0 of 6

CN(C)c1nc(Cl)c2cc(Cl)ccc2n1
survivor count (dose: 240.0 mg/kg/injection, schedule: Q01DX005 (ip), vehicle: Klucel (hydroxypropylcellulose) (HPC)): 3 of 6

CN1C(=O)N(C2CCCCC2)C(=O)C(C)(CN2CCCCC2)C1=O (stereo not drawn)
survivor count (dose: 100.0 mg/kg/injection, schedule: Q01DX009 (sc), vehicle: saline with Tween-80): 6 of 6

COc1ccccc1N/N=c1\c2nc3ccccc3nc1n(-c1ccccc1C)c(=S)n2-c1ccccn1
survivor count (dose: 240.0 mg/kg/injection, schedule: Q01DX005 (ip), vehicle: saline with Tween-80): 1 of 6

CN(c1ccc(C2=NCCN2)cc1)S(=O)(=O)c1ccc(Oc2ccc(S(=O)(=O)N(C)c3ccc(C4=NCCN4)cc3)cc2)cc1
survivor count (dose: 50.0 mg/kg/injection, schedule: Q01DX005 (ip), vehicle: Klucel (hydroxypropylcellulose) (HPC)): 0 of 5
survivor count (dose: 100.0 mg/kg/injection, schedule: Q01DX005 (ip), vehicle: Klucel (hydroxypropylcellulose) (HPC)): 0 of 5
survivor count [1]: 0 of 5

CCOC(=O)N(C)N=NC
T/C (dose: 15.0 mg/kg/injection, schedule: Q01DX005 (ip), vehicle: saline): 133 % of control
T/C (dose: 30.0 mg/kg/injection, schedule: Q01DX005 (ip), vehicle: saline): 126 % of control
survivor count (dose: 60.0 mg/kg/injection, schedule: Q01DX005 (ip), vehicle: saline): 6 of 6
survivor count [7]: 0 of 6
survivor count [8]: 0 of 6

Cc1cccc(NC(=O)Nc2ccccc2Cl)n1
survivor count (dose: 400.0 mg/kg/injection, schedule: Q01DX009 (ip), vehicle: Klucel (hydroxypropylcellulose) (HPC)): 6 of 6

O=NN(C(=O)NC1CCC(O)CC1)C1CCC(O)CC1 (stereo not drawn)
survivor count (dose: 400.0 mg/kg/injection, schedule: Q01DX001 (ip), vehicle: distilled water + Tween-80): 0 of 6
